The values that follow come from PMC9282937.

Protein sequences, listed by entry. Tags and fused reporters are not part of them.
UniProt Q12778: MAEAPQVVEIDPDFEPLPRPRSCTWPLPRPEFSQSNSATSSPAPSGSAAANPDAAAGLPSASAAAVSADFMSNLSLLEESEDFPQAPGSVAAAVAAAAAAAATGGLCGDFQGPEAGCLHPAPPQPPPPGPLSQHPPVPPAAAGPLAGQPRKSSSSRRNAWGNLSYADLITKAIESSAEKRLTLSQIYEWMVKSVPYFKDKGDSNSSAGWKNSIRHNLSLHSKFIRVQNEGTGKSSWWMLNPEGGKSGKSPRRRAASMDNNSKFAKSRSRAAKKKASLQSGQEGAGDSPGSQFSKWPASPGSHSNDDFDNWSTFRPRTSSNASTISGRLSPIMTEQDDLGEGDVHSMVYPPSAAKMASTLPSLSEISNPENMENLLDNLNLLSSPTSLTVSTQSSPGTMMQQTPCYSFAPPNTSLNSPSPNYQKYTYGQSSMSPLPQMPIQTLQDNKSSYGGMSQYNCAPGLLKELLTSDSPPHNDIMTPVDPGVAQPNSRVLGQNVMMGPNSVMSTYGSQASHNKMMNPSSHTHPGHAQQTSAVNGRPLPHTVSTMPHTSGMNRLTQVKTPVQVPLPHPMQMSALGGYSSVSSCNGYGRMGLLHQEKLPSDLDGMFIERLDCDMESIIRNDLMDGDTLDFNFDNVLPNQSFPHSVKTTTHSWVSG

These are yes or no findings as the source states them, for the method shown. Binding seen in cells or lysates may run through a third protein. Some results given as binding are weak or reduced against the parent protein; the word gives no strength.

This assay addresses T1, STAT6 (human (endogenous in THP-1)) (UniProt P42226).
T1 sequence: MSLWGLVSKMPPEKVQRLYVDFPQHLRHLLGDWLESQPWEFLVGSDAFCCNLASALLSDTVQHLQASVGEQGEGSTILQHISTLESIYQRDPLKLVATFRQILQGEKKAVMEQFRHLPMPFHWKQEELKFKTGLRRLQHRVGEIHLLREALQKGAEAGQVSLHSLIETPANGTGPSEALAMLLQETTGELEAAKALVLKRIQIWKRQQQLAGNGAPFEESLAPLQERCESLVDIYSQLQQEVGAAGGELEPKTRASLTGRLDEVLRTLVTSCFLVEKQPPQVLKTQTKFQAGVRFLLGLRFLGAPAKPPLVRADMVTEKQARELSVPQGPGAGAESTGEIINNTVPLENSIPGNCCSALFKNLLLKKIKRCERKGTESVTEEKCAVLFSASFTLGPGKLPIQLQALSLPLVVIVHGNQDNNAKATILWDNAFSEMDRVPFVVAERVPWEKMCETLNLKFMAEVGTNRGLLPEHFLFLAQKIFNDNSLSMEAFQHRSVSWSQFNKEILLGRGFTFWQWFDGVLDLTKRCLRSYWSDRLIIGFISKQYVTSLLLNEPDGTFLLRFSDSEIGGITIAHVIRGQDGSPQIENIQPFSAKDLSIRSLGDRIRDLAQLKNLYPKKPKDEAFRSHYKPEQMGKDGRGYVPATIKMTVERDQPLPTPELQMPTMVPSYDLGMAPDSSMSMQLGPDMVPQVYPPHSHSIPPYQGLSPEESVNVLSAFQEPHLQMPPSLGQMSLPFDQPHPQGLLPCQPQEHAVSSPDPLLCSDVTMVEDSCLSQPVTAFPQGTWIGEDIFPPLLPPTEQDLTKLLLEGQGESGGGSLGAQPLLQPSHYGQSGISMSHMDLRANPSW
As to the kind of experiment: co-IP; THP-1 macrophage lysates; precipitation with anti-STAT6 or anti-FOXO1 antibody against control IgG, immunoblots with anti-FOXO1 and anti-STAT6. A general note: In western blotting, separated proteins are transferred to a membrane and probed.

With FOXO1 (from UniProt Q12778 1-655), the binding entry is recorded as “binds”.
